According to patent publication US7524821B2 (priority 2002, dated 2009):

Experiment: general procedure: Fmoc solid-phase peptide synthesis; Fmoc-PAL-PEG-PS; HATU/DIPEA
Conditions: conjugation step

Substance | conjugation yield
Ac-CELDKWA-NH2 | 88%
Ac-ELDKWAC-NH2 | 91%
